From US20160201132A1, “GENE EXPRESSION BIOMARKERS OF LAQUINIMOD RESPONSIVENESS” (Teva Pharmaceutical Industries Ltd., priority 2013, published 2016)
The source gives many values for each of these; only a part stands here.

Tested on: PBMC of RRMS patients
Assay: Gene expression microarray analysis (HG-U133A-2) of PBMC from RRMS patients treated with LAQ, ancillary study to ALLEGRO
Type: in vivo, human
From the text: The goal of this ancillary study was to characterize gene expression changes and corresponding biological mechanisms induced in PBMC of RRMS patients by LAQ treatment. According to ALLEGRO clinical trial inclusion criteria, 25 patients were randomly assigned to receive LAQ (n=13, age 38.8±2.3 years, female/male ratio: 8/5) or placebo (n=12, age 37.2±3.4 years, female/male ratio: 8/4).
Peripheral blood samples were obtained from RRMS patients at baseline before start of LAQ treatment or placebo, after 0, 1, 6 and 24 month of treatment (visit 0, 1, 6 and 7 according to ALLEGRO clinical trial protocol correspondently) for gene microarray analysis.
Briefly, 1) Peripheral blood mononuclear cells (PBMC) were obtained from RRMS patients that participated in ALLEGRO and were treated daily with 0.6 mg LAQ or placebo. PBMC were subjected for gene expression analysis (HU-133A-2-Affymatrix arrays) at baseline and at 1 and 6 months of LAQ treatment; 2) Data was analyzed by Partek Genomics Solution software. Most informative genes (MIGs) were defined as those that differentiated between groups with p<0.01. Gene functional annotation, enrichment and pathway analysis were performed by Ingenuity software. For each time point, genes that changed in placebo group were excluded from further analysis; and 3) Verification of LAQ related mechanism was performed by Western blot.
PBMC were extracted from 15 ml peripheral blood, separated by Ficoll-Hypaque gradient. Total RNA was extracted using both Trizol (Invitrogen, USA) and Phase-Lock-Gel columns (Eppendorf, Germany) including a DNase digestion step. RNA integrity was assessed by RNA Experion automated electrophoresis system (Bio-Rad Laboratories, Hercules, Calif.).
Probe synthesis using 3 μg total RNA, hybridization, detection, and scanning was performed according to the standard Affymetrix, Inc. USA protocols; cDNA was synthesized using the Two-Cycle cDNA Synthesis Kit (Affymetrix, Inc., USA), and in-vitro transcription performed with the GeneChip IVT Labeling Kit (Affymetrix, Inc., USA). The biotin-labeled IVT-RNA was hybridized to HG-U133A-2 arrays containing 18,400 gene transcripts, each corresponding to 14,500 well-annotated human genes, washed in a GeneChip Fluidics Station 450 (Hewlett Packard, USA, GeneArray-™ scanner G2500A) and scanned according to the manufacturer's protocol (Affymetrix, Inc., USA).
Data analysis was performed on Partek Genomics Solution software (www.partek.com; Partek Incorporated, St. Louis, Mo.). Expression values were computed from raw CEL files by applying the Robust Multi-Chip Average (RMA) background correction algorithm. RMA correction included: 1) values background correction; 2) quintile normalization; 3) log 2 transformation; and 4) median polish summarization. The ANOVA, Repeated Measures and correlation analysis implicated in Partek software ware applied to evaluate LAQ effects. Most informative genes MIGs were defined as those that differentiated between experimental groups with p<0.01. All p-values were calculated for False Discovery Rate (FDR) multiple test correction at p=0.05.
Additionally, significance of individual genes was tested by parametric T-test and non parametric Mann-Whitney test using Bootstrapping approach based on repeated permutations of the data with 5% FDR for multiple testing.
Gene functional annotation, enrichment, and pathway analyses to identify the leading biological pathways that operated under LAQ treatment were performed by Ingenuity Pathways Analysis software (www.ingenuity.com).
ANOVA analysis was used to compare PBMC gene expression after 1, 6 or 24 month of LAQ treatment with baseline gene expression.
For each time point inventors performed analysis source of variation in dataset. (FIG. 1). Age, gender and batch effects were considered as confounders regarding LAQ or Placebo related changes. For each time point genes associated with Placebo effect were evaluated and excluded from further analysis. […]

## CCN(C(=O)c1c(O)c2c(Cl)cccc2n(C)c1=O)c1ccccc1 [LAQ, 5-chloro-N-ethyl-4-hydroxy-1-methyl-2-oxo-N-phenyl-1,2-dihydroquinoline-3-carboxamide]
Gene TF, PBMC, six months of LAQ treatment
  Fold-Change (4.0 vs. 0.0): −1.12
Gene TF, after six months of LAQ
  Fold-Change (4.0 vs. 0.0): −1.142
Gene TFAP2C, after six months of LAQ
  Fold-Change (4.0 vs. 0.0): −1.132
Gene TFAP4, six months of treatment
  Fold-Change (4.0 vs. 0.0): −1.147
Gene TFF3, after six months of LAQ
  Fold-Change (4.0 vs. 0.0): −1.247
Gene TFPI, six months of treatment
  Fold-Change (4.0 vs. 0.0): −1.161
Gene TFR2
  Fold-Change (4.0 vs. 0.0): −1.188
Gene TGM2, after six months of LAQ
  Fold-Change (4.0 vs. 0.0): −1.338
Gene THPO, PBMC, six months of LAQ treatment
  Fold-Change (4.0 vs. 0.0): −1.091
Gene THRB
  Fold-Change (4.0 vs. 0.0): −1.177
Gene THSD7A, after six months of LAQ
  Fold-Change (4.0 vs. 0.0): −1.1321
Gene TIMELESS, six months of treatment
  Fold-Change (4.0 vs. 0.0): −1.146
Gene TIMP3, six months of treatment
  Fold-Change (4.0 vs. 0.0): −1.156
Gene TLL2, after six months of LAQ
  Fold-Change (4.0 vs. 0.0): −1.123
Gene TLX1, six months of treatment
  Fold-Change (4.0 vs. 0.0): −1.154
Gene TLX3, six months of treatment
  Fold-Change (4.0 vs. 0.0): −1.145
Gene TM7SF4, six months of treatment
  Fold-Change (4.0 vs. 0.0): −1.158
Gene TMEM158, after six months of LAQ
  Fold-Change (4.0 vs. 0.0): −1.882
Gene TMEM212, after six months of LAQ
  Fold-Change (4.0 vs. 0.0): −1.143
Gene TMEM222, after six months of LAQ
  Fold-Change (4.0 vs. 0.0): −1.131
Gene TMPRSS11D, six months of treatment
  Fold-Change (4.0 vs. 0.0): −1.159
Gene TMSB15A, six months of treatment
  Fold-Change (4.0 vs. 0.0): −1.154
Gene TNC, six months of treatment
  Fold-Change (4.0 vs. 0.0): −1.148
Gene TNFRSF11B, PBMC, six months of LAQ treatment
  Fold-Change (4.0 vs. 0.0): −1.116
Gene TNIP3, six months of treatment
  Fold-Change (4.0 vs. 0.0): −1.159
Gene TNN, six months of treatment
  Fold-Change (4.0 vs. 0.0): −1.16
Gene TNPO2, six months of treatment
  Fold-Change (4.0 vs. 0.0): −1.159
Gene TOX3, after six months of LAQ
  Fold-Change (4.0 vs. 0.0): −1.141
Gene TP63
  Fold-Change (4.0 vs. 0.0): −1.185
Gene TP63, after six months of LAQ
  Fold-Change (4.0 vs. 0.0): −1.261
Gene TPD52L1, six months of treatment
  Fold-Change (4.0 vs. 0.0): −1.158
Gene TPM2, after six months of LAQ
  Fold-Change (4.0 vs. 0.0): −1.13
Gene TREH, PBMC, six months of LAQ treatment
  Fold-Change (4.0 vs. 0.0): −1.122
Gene TRIM3, after six months of LAQ
  Fold-Change (4.0 vs. 0.0): −1.126
Gene TRIM9, six months of treatment
  Fold-Change (4.0 vs. 0.0): −1.153
Gene TRIM10, six months of treatment
  Fold-Change (4.0 vs. 0.0): −1.147
Gene TRIM15
  Fold-Change (4.0 vs. 0.0): −1.186
Gene TRIM17
  Fold-Change (4.0 vs. 0.0): −1.187
Gene TRIM49, after six months of LAQ
  Fold-Change (4.0 vs. 0.0): −1.128
Gene TRIM58, after six months of LAQ
  Fold-Change (4.0 vs. 0.0): −1.736
Gene TRMT61A, after six months of LAQ
  Fold-Change (4.0 vs. 0.0): −1.1428
Gene TRPC4, after six months of LAQ
  Fold-Change (4.0 vs. 0.0): −1.127
Gene TRPC7, after six months of LAQ
  Fold-Change (4.0 vs. 0.0): −1.234
Gene TRPV4, PBMC, six months of LAQ treatment
  Fold-Change (4.0 vs. 0.0): −1.121
Gene TSHB, six months of treatment
  Fold-Change (4.0 vs. 0.0): −1.147
Gene TSPAN1, after six months of LAQ
  Fold-Change (4.0 vs. 0.0): −1.235
Gene TSPY1, six months of treatment
  Fold-Change (4.0 vs. 0.0): −1.146
Gene TUBB2B
  Fold-Change (4.0 vs. 0.0): −1.188
Gene UBE2D4, PBMC, six months of LAQ treatment
  Fold-Change (4.0 vs. 0.0): −1.104
Gene UBE2I, after six months of LAQ
  Fold-Change (4.0 vs. 0.0): −1.265
Gene UBQLN3
  Fold-Change (4.0 vs. 0.0): −1.1902
Gene UGT1A1 /// UGT1A10 /// UGT1A3 /// UGT1A4 /// UGT1A5 /// UGT1A6 /// UGT1A7 /// UGT1A8 /// UGT1A9, six months of treatment
  Fold-Change (4.0 vs. 0.0): −1.154
Gene UGT1A1 /// UGT1A10 /// UGT1A4 /// UGT1A6 /// UGT1A8 /// UGT1A9, after six months of LAQ
  Fold-Change (4.0 vs. 0.0): −1.227
Gene UGT1A1 /// UGT1A10 /// UGT1A7 /// UGT1A8, six months of treatment
  Fold-Change (4.0 vs. 0.0): −1.1547
Gene UGT2A1 /// UGT2A2
  Fold-Change (4.0 vs. 0.0): −1.191
Gene UGT2B15
  Fold-Change (4.0 vs. 0.0): −1.177
Gene UGT2B15, after six months of LAQ
  Fold-Change (4.0 vs. 0.0): −1.139
Gene UNC5B, six months of treatment
  Fold-Change (4.0 vs. 0.0): −1.151
Gene UNC93A, after six months of LAQ
  Fold-Change (4.0 vs. 0.0): −1.123
Gene UPK1B
  Fold-Change (4.0 vs. 0.0): −1.192
Gene USH1C, six months of treatment
  Fold-Change (4.0 vs. 0.0): −1.159
Gene USP46
  Fold-Change (4.0 vs. 0.0): −1.187
Gene VAC14, after six months of LAQ
  Fold-Change (4.0 vs. 0.0): −1.297
Gene VGLL1, after six months of LAQ
  Fold-Change (4.0 vs. 0.0): −1.143
Gene WFDC8
  Fold-Change (4.0 vs. 0.0): −1.188
Gene WNT11, six months of treatment
  Fold-Change (4.0 vs. 0.0): −1.157
Gene WSCD1
  Fold-Change (4.0 vs. 0.0): −1.176
Gene XAGE1A /// XAGE1B /// XAGE1C /// XAGE1D /// XAGE1E, six months of treatment
  Fold-Change (4.0 vs. 0.0): −1.1482
Gene XYLT1, PBMC, six months of LAQ treatment
  Fold-Change (4.0 vs. 0.0): 1.332
Gene YOD1, PBMC, six months of LAQ treatment
  Fold-Change (4.0 vs. 0.0): −1.117
Gene ZBED2, after six months of LAQ
  Fold-Change (4.0 vs. 0.0): −1.256
Gene ZER1, six months of treatment
  Fold-Change (4.0 vs. 0.0): −1.154
Gene ZNF155, after six months of LAQ
  Fold-Change (4.0 vs. 0.0): −1.227
Gene ZNF214, six months of treatment
  Fold-Change (4.0 vs. 0.0): −1.1492
Gene ZNF224, six months of treatment
  Fold-Change (4.0 vs. 0.0): −1.16
Gene ZNF324B /// ZNF584, PBMC, six months of LAQ treatment
  Fold-Change (4.0 vs. 0.0): −1.114
Gene ZNF467, after six months of LAQ
  Fold-Change (4.0 vs. 0.0): −1.129
Gene ZNF471, PBMC, six months of LAQ treatment
  Fold-Change (4.0 vs. 0.0): −1.12
Gene ZNF550, after six months of LAQ
  Fold-Change (4.0 vs. 0.0): −1.269
Gene ZNF674, PBMC, six months of LAQ treatment
  Fold-Change (4.0 vs. 0.0): −1.116
Gene ZNF821
  Fold-Change (4.0 vs. 0.0): −1.195
Gene ZNRF4, six months of treatment
  Fold-Change (4.0 vs. 0.0): −1.149
